{"source": "patent US20110152214A1", "about": "“SILK POLYMER-BASED ADENOSINE RELEASE: THERAPEUTIC POTENTIAL FOR EPILEPSY” (TRUSTEES OF TUFTS COLLEGE, priority 2008, published 2011)", "origin": "cited, not measured here", "system": "rat kindling model", "settings": "Silver et al., 1991; cited from earlier work", "note": "At least one compound was matched to its structure with a doubt left.", "data": [{"compound": "CCCC(CCC)C(=O)O", "note": "[valproate]", "values": [{"measurement": "effect on kindling development / antiepileptogenesis", "value": "complete antiepileptogenic effects"}]}]}
